These are yes or no findings as the source states them, for the method shown. In cells and extracts the contact can be indirect. A yes stands for co-enrichment or nearness to the bait. Other partners may have been found.
Target: T1, Nup85 (endogenous, Xenopus egg extract) (Xenopus (endogenous in egg extract)) (UniProt Q68FJ0)
T1 sequence: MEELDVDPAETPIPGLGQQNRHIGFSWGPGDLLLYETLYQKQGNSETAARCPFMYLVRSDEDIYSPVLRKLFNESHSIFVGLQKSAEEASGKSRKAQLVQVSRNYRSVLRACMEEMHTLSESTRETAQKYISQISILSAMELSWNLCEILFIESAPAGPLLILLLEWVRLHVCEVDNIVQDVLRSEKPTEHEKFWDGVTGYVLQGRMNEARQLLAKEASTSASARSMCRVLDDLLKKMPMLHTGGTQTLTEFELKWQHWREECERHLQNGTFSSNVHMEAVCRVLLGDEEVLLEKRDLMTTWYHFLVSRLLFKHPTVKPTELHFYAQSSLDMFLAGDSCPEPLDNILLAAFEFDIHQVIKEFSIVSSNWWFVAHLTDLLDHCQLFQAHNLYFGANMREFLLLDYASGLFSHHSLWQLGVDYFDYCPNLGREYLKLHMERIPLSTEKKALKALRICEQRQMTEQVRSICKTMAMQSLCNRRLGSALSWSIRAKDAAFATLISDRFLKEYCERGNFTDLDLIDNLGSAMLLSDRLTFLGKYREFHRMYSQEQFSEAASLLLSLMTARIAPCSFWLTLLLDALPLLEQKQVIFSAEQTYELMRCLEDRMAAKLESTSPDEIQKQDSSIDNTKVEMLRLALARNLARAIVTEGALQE
Assay: affinity purification with mass spectrometry; endogenous nucleoporin complexes retrieved from Xenopus egg extract (HSS) through a nanobody against one member on magnetic Streptavidin beads, 1 h at 4°C, washes up to 300 mM NaCl, 0.05% Tween-20; RanQ69L•GTP wash for the anti-Nup98 and anti-Nup54 nanobodies; elution by SUMOStar protease; bands identified by mass spectrometry

The chains behind the UniProt entries cited, without tags or fusion partners.
UniProt Q5U249: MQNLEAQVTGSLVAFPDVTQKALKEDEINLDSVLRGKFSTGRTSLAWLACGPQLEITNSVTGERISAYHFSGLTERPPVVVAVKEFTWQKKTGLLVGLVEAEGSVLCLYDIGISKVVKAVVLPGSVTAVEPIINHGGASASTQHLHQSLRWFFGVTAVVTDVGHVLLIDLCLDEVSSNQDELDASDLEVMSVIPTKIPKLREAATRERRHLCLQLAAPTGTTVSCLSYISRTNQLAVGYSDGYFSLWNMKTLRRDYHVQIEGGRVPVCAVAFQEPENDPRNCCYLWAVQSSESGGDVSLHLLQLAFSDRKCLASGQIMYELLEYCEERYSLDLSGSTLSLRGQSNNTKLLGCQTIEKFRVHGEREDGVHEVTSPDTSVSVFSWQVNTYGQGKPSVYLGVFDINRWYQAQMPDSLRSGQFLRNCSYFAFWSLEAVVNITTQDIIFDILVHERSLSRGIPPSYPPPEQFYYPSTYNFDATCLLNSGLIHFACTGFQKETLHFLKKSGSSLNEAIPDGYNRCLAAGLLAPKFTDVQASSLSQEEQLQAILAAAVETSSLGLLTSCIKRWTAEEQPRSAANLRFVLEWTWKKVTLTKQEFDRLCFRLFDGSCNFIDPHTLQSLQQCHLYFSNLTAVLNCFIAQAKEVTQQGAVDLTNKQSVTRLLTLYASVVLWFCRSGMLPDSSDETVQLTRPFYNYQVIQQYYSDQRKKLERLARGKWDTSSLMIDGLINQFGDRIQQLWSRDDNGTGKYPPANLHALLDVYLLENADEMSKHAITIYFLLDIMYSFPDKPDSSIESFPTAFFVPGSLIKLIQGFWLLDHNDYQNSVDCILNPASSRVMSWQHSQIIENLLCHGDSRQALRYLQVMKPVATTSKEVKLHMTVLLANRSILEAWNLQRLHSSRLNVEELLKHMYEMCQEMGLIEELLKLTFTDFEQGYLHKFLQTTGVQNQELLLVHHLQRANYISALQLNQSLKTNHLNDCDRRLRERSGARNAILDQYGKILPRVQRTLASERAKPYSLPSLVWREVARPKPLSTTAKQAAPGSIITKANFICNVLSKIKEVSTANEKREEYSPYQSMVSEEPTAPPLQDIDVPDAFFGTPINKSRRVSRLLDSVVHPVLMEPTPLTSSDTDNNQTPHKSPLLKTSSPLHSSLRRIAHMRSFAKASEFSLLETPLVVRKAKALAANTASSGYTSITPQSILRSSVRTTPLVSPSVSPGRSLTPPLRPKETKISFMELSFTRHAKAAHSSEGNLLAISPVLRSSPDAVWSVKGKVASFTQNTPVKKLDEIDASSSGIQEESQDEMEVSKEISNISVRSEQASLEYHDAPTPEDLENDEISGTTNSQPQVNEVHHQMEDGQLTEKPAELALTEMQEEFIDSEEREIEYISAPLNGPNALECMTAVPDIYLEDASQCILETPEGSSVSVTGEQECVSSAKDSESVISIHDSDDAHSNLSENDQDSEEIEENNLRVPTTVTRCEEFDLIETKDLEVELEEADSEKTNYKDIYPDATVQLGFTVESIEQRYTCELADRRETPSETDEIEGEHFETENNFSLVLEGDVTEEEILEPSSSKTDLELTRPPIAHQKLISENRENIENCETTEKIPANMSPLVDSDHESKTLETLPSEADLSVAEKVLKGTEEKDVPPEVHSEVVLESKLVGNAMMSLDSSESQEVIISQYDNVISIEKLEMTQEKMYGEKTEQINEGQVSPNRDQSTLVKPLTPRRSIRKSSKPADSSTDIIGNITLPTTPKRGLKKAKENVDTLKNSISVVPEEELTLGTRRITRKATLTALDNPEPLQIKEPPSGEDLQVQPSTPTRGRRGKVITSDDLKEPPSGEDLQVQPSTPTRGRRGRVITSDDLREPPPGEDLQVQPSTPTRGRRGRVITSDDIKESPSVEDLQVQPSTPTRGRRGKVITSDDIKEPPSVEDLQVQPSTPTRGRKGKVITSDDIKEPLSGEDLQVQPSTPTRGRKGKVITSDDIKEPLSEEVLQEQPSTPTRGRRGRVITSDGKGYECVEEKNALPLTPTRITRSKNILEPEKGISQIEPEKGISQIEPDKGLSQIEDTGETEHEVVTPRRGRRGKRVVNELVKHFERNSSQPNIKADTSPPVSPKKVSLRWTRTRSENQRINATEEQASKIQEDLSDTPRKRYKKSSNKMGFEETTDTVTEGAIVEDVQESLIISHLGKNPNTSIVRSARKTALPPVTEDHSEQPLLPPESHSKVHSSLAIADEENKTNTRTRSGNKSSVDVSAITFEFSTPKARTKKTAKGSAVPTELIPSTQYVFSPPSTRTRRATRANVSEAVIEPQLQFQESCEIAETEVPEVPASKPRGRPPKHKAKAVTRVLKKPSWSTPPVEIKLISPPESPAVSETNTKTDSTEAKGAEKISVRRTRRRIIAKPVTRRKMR
UniProt Q5EE04: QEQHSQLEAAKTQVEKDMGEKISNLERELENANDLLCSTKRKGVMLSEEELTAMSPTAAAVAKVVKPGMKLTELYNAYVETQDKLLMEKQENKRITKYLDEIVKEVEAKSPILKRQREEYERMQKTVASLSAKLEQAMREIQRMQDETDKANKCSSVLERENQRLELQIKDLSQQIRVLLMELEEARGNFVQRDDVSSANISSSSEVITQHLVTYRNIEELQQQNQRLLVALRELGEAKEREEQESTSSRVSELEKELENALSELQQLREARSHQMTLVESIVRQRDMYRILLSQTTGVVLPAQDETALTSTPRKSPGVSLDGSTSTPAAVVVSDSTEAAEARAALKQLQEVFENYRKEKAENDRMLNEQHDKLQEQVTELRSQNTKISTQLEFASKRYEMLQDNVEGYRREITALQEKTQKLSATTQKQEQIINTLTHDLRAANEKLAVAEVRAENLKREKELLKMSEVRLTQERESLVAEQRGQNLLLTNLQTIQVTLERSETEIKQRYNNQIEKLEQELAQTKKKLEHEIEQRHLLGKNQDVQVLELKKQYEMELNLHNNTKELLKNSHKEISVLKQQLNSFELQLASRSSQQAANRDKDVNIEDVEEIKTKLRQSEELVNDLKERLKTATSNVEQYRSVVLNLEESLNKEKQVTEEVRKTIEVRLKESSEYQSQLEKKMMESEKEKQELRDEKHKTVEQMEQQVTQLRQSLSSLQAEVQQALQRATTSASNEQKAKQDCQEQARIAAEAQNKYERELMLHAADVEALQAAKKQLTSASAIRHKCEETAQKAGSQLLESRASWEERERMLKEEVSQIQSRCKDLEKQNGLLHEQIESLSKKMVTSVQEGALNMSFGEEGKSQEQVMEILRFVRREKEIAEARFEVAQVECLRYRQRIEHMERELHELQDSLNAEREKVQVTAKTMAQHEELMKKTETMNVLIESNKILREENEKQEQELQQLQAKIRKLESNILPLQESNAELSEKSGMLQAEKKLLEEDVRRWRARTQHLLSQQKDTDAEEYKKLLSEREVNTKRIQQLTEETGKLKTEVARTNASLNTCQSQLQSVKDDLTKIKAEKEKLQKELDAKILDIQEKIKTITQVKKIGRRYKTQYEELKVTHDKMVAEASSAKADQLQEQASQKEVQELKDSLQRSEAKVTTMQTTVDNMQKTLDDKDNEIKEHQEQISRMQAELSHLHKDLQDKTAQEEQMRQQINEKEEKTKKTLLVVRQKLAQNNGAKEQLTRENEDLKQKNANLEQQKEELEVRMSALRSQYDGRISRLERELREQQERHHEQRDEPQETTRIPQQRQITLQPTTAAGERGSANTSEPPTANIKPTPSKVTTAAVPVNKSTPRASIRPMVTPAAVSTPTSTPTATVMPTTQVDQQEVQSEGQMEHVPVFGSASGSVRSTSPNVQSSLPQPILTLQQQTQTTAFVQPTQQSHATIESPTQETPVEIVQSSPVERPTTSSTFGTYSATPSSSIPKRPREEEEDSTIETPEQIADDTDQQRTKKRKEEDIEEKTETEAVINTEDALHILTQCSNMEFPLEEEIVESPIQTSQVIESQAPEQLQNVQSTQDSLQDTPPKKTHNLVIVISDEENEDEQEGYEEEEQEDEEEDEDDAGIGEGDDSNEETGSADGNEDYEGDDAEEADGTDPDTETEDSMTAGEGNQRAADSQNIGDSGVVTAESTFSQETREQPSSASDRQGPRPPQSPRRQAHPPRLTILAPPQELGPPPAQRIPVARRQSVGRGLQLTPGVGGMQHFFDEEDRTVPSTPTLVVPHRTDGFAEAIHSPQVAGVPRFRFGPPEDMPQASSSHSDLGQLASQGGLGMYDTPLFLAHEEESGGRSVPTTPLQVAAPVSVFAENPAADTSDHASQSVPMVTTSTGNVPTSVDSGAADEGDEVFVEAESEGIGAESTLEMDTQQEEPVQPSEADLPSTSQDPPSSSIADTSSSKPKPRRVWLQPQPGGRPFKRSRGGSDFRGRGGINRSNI

| binding | Substance |
| --- | --- |
| binds | Elys (endogenous, Xenopus egg extract) (from UniProt Q5U249 1-2408) |
| binds | Tpr (endogenous, Xenopus egg extract) (from UniProt Q5EE04 1-1997) |

— publication PMC4755751 (eLife, 2015)
